Here are results for ten molecules from paper PMC12475854.

Sequences of proteins named here, by UniProt entry; tags and fusion partners are left off. Residues count along the entry.
UniProt P01108: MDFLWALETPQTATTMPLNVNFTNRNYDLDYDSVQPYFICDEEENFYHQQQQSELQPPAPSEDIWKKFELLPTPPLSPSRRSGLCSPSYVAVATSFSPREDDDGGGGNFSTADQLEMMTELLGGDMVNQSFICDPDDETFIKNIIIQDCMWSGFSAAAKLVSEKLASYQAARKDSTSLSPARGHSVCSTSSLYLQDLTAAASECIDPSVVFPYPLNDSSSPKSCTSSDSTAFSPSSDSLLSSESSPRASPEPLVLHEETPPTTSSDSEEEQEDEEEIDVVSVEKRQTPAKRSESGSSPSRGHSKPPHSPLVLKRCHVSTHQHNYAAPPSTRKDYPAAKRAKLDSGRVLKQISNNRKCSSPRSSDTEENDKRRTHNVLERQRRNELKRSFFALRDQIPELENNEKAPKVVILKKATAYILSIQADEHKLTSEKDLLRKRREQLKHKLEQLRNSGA
UniProt Q8CHC4: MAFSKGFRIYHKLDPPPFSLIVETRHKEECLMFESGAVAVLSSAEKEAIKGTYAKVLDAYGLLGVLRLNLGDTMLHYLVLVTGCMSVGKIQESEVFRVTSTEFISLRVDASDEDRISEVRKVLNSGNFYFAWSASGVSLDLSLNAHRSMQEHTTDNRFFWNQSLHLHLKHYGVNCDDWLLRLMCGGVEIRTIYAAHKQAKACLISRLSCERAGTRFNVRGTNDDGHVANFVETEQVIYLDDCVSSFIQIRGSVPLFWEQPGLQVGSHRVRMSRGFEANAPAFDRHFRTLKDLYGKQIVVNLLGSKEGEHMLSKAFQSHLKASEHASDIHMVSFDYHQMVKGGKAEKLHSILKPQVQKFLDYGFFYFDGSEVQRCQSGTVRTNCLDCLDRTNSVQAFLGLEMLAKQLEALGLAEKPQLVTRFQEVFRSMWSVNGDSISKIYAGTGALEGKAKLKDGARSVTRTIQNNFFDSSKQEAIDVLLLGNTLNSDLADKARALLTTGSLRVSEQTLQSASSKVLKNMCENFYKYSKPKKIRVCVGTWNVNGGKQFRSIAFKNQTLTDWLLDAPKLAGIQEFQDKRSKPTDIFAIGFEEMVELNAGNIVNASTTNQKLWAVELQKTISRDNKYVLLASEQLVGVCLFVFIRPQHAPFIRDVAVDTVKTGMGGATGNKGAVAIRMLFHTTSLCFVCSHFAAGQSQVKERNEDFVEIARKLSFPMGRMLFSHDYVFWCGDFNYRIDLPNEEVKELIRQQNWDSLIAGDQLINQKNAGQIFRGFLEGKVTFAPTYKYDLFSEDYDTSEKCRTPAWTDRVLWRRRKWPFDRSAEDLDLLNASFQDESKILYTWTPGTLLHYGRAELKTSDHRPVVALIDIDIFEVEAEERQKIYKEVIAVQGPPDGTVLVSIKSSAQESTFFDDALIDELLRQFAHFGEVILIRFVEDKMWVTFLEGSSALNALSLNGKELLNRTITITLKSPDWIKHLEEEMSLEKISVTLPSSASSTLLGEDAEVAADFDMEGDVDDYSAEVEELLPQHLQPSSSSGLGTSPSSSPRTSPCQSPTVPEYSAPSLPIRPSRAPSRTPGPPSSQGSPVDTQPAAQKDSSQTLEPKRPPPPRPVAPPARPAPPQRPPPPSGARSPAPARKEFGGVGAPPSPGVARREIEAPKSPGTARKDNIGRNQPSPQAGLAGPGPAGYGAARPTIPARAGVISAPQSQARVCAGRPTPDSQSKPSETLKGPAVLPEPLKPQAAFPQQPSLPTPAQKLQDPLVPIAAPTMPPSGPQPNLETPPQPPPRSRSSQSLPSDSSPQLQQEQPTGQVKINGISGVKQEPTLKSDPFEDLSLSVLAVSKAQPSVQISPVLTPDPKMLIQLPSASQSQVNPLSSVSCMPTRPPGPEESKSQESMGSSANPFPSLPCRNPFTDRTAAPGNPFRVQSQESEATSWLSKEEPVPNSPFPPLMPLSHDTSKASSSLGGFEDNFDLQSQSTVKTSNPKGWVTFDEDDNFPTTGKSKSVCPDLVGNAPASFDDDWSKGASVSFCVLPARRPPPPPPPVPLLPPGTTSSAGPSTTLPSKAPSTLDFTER
UniProt P56818, residues 46-501: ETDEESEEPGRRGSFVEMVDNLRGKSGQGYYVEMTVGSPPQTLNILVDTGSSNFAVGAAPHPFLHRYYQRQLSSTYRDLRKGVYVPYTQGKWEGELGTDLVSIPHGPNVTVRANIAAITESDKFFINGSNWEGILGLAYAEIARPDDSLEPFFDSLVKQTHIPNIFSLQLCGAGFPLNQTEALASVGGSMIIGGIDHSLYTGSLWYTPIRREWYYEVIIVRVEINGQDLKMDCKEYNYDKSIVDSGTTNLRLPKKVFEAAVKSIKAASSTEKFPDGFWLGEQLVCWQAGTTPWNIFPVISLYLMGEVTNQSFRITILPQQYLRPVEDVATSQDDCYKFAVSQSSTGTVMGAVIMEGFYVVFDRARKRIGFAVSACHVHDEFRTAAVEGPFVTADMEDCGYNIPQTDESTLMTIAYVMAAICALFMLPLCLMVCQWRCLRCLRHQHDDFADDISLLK
UniProt Q62421: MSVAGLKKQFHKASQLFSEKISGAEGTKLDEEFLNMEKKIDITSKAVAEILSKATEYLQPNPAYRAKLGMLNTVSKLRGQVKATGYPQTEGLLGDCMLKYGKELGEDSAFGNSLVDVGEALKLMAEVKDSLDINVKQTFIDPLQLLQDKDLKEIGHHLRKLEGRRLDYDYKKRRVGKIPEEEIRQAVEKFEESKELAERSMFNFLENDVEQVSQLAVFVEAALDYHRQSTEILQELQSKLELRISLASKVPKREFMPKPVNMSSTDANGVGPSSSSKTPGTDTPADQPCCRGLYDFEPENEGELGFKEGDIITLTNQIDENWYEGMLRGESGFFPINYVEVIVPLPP
UniProt Q7SIG6: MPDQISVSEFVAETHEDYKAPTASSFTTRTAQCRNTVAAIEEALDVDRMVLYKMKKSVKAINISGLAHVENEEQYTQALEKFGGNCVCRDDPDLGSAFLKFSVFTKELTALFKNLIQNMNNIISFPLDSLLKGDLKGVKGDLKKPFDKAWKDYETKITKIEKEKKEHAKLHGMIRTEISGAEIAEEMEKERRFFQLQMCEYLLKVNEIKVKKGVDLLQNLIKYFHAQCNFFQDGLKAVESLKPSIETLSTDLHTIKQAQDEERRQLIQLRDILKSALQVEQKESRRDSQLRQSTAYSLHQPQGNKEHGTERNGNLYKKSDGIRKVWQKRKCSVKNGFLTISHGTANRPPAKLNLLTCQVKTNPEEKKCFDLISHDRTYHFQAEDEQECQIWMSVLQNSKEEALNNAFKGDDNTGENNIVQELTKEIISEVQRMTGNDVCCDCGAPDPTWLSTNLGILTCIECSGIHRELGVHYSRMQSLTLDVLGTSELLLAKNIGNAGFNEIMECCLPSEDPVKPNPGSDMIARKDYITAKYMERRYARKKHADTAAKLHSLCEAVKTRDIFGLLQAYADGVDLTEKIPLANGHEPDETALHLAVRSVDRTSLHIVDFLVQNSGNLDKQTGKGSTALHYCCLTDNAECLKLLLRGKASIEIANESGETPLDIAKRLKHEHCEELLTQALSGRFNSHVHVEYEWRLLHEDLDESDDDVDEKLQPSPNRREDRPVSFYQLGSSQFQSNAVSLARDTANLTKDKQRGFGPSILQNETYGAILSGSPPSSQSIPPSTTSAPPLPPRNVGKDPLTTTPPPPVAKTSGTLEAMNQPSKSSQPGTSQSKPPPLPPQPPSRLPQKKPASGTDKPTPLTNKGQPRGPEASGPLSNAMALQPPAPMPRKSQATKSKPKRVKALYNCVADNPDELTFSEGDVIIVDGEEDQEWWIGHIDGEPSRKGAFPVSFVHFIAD

T1: BIN1iso1-TID (human BIN1 isoform 1-TurboID-V5 fusion protein), expressed in N2a cells (human) (UniProt O00499)
T1 sequence: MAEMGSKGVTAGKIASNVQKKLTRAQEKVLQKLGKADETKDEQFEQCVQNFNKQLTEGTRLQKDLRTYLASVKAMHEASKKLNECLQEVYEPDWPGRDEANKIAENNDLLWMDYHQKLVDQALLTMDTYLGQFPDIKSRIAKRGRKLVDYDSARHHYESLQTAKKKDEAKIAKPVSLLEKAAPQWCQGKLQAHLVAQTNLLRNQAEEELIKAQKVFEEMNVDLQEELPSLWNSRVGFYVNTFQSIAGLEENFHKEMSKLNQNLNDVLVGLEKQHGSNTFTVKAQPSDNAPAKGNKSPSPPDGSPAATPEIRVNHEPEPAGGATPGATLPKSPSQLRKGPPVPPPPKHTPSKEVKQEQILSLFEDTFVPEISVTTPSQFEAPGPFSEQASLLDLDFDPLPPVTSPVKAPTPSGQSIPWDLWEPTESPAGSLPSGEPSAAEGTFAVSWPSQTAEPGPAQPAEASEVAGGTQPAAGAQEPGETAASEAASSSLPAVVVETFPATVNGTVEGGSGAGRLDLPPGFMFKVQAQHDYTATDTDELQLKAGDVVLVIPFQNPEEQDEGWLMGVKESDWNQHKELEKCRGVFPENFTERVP

T2: BIN1iso1-TID (human BIN1 isoform 1-TurboID-V5 fusion protein), expressed in mouse brain neurons (human) (UniProt O00499)
T2 sequence: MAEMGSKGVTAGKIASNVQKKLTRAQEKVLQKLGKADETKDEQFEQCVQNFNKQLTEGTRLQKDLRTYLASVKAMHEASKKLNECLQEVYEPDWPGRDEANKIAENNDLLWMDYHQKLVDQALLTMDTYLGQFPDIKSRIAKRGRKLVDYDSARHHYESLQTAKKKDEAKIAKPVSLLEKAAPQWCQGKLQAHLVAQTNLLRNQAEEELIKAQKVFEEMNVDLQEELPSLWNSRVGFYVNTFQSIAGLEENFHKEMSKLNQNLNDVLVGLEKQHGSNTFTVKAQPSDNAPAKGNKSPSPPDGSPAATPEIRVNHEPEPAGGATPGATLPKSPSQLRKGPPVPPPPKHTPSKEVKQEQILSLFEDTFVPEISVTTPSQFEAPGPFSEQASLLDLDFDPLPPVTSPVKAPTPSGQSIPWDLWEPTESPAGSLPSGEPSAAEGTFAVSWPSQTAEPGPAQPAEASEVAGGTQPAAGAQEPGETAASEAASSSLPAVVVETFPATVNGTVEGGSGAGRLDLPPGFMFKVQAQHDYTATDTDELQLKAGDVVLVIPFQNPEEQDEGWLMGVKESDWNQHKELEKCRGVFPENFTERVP

B1: SYNJ2 (protein, UniProt Q9D2G5 1-1434)
chain: MALSKGLRLLARLDPTGPSSVLLEARGRGDCLLFEAGAVATLAPEEKEVIKGLYSKLTDAYGCLGELRLQSGGVPLSFLVLVTGCMSVGRIPDAEIYKITATELYPLQEEAKEEDRLPTLKKILSSGVFYFAWPNDGACFDLTIRAQKQGDDGSEWGTSFFWNQLLHVPLRQHQVNCHNWLLKVICGVVTIRTVYASHKQAKACLISRISCERAGARFLTRGVNDDGHVSNFVETEQTIYMDDGVSSFVQIRGSVPLFWEQPGLQVGSHHLRLHRGLEANAPAFERHMVLLKEQYGKQVVVNLLGSRGGEEVLNRAFKKLLWASCHAGDTPMINFDFHQFAKGRKLEKLENLLRPQLQLHWEDFGVFAKGENVSPRFQKGTLRMNCLDCLDRTNTVQCFIALEVLHLQLESLGLNSKPIIDRFVESFKAMWSLNGHSLSKVFTGSRALEGKAKVGKLKDGARSMSRTIQSNFFDGVKQEAIKLLLVGDVYNEESTDKGRMLLDNTALLATPRILKAMTERQSEFTNFKRIQIAVGTWNVNGGKQFRSNLLGTAELTDWLLDAPQLSGAVDSQDDGSPADVFAIGFEEMVELSAGNIVNASTTNRKMWGEQLQKAISRSHRYILLTSAQLVGVCLYIFVRPYHVPFIRDVAIDTVKTGMGGKAGNKGAVGIRFQLHSTSFCFVCSHLTAGQSQVKERNEDYREITHKLSFPSGRNIFSHDYVFWCGDFNYRIDLTYEEVFYFVKRQDWKKLMEFDQLQLQKSSGKIFKDFHEGAVNFGPTYKYDVGSAAYDTSDKCRTPAWTDRVLWWRKKHPYDKTAGELNLLDSDLDGDPQIRHTWSPGTLKYYGRAELQASDHRPVLAIVEVEVQEVDVGARERVFQEVSSVQGPLDATVVVNLQSPTLEEKNEFPEDLRTELMQTLGNYGTIILVRINQGQMLVTFADSHSALSVLDVDGMKVKGRAVKIRPKTKDWLEGLREELLRKRDSMAPVSPTANSCLLEENFDFSSLDYESEGDVLEEDEDYLVDGFGQPVVSDSELGGDNSSDTMSSLTPASKSPALAKKKQHPTYKAGLMVKKSASDASISSGTHGQYSILQTAKLLPGAPQQPPKARTGISKPYNVKQIKTTNAQEAEAAIRCLLEASGGVPESAPGAIPLRNQGSSKPEATLGPPALPRRPAPRVPTMKKPTLRRTGKPMLPEENFEPQPVHFTMASQEMNLETPPPITATPIPPVPKPRTLQPGKGVEGRPSSGKPEPDEAPSVTGTVESPPPEAQEAPSLAPKVPPRRKKSAPAAFHLQVLQNNSQVLQGLTCSSSSPPSLKPDTHPLCLQVALGTSSARSPETHGPRVTEPEAASFHGNYPDPFWSLLHHPKLLNNTWLSKSSEPLDVGSRNPERTHTEPAQVNASLAERGLPPDHGGKDLSHWVTASNKDKRTTLGV
B2: DYN1 (protein, UniProt P39053 1-867)
chain: MGNRGMEDLIPLVNRLQDAFSAIGQNADLDLPQIAVVGGQSAGKSSVLENFVGRDFLPRGSGIVTRRPLVLQLVNSTTEYAEFLHCKGKKFTDFEEVRLEIEAETDRVTGTNKGISPVPINLRVYSPHVLNLTLVDLPGMTKVPVGDQPPDIEFQIRDMLMQFVTKENCLILAVSPANSDLANSDALKIAKEVDPQGQRTIGVITKLDLMDEGTDARDVLENKLLPLRRGYIGVVNRSQKDIDGKKDITAALAAERKFFLSHPSYRHLADRMGTPYLQKVLNQQLTNHIRDTLPGLRNKLQSQLLSIEKEVDEYKNFRPDDPARKTKALLQMVQQFAVDFEKRIEGSGDQIDTYELSGGARINRIFHERFPFELVKMEFDEKELRREISYAIKNIHGIRTGLFTPDMAFETIVKKQVKKIREPCLKCVDMVISELISTVRQCTKKLQQYPRLREEMERIVTTHIREREGRTKEQVMLLIDIELAYMNTNHEDFIGFANAQQRSNQMNKKKTSGNQDEILVIRKGWLTINNIGIMKGGSKEYWFVLTAENLSWYKDDEEKEKKYMLSVDNLKLRDVEKGFMSSKHIFALFNTEQRNVYKDYRQLELACETQEEVDSWKASFLRAGVYPERVGDKEKASETEENGSDSFMHSMDPQLERQVETIRNLVDSYMAIVNKTVRDLMPKTIMHLMINNTKEFIFSELLANLYSCGDQNTLMEESAEQAQRRDEMLRMYHALKEALSIIGDINTTTVSTPMPPPVDDSWLQVQSVPAGRRSPTSSPTPQRRAPAVPPARPGSRGPAPGPPPAGSALGGAPPVPSRPGASPDPFGPPPQVPSRPNRAPPGVPSLGAWRLNSPQGKHENRAGKARL
B3: AMPH (protein, UniProt Q7TQF7 1-686)
chain: MADIKTGIFAKNVQKRLNRAQEKVLQKLGKADETKDEQFEEYVQNFKRQEAEGTRLQRELRGYLAAIKGMQEASMKLTESLHEVYEPDWYGREDVKMVGEKCDVLWEDFHQKLVDGSLLTLDTYLGQFPDIKNRIAKRSRKLVDYDSARHHLEALQSSKRKDESRISKAEEEFQKAQKVFEEFNVDLQEELPSLWSSRVGFYVNTFKNVSSLEAKFHKEIAVLCHKLYEVMTKLGDQHADKAFSIQGAPSDSGPLRIAKTPSPPEEPSPLPSPTASPNHTLAPASPAPVRPRSPSQTRKGPPVPPLPKVTPTKELKQENIINFFEDNFVPEINVTTPSQNEVLEVKKEETLLDLDFDPFKPDVAPAGSAAATHSPMSQTLPWDLWTTSTDLVQPASGGSFNDFTQAQDTSLFTMQTDQNMAETEQALPTEPQAEEPPATAAAPTAGLDLGLEMEEPKEEAVIPPATDTGETVETAVPTEGAPVEEAEAEKAALPAGEGGSPEGAKIDGESTELAISESPQPVEPEAGAPQVIPSVVIEPASNHEGEGEHQETATGTEPREAAEDVAAQGSAGEKQEVATEPTPLDSQATLPASAGAVDASLSAGDATQELPPGFLYKVETLHDFEAANSDELNLQRGDVVLVVPSDSEADQDAGWLVGVKESDWLQYRDLATYKGLFPENFTRRLE
B4: RIN3 (protein, UniProt P59729 1-980)
chain: MRRAEAPSSAHPAGPIPDAGKGEGEEDEEKDGTRLGLSTTPRNCIPRRGISVLEKLVKTCPVWLQLGLGQAEAAKILQQEMAGMFLVCRDNNLKQLVLCVHFPSLKGSSAEVLEYPIKEEKAILYLEGSVLVFEDIFRLIAFYCVSRDLLPFTLRLPQAILEASSFLELETISNLGLGFWDSSLNSRGSAEPLRSPAPGTPASSSLRPTTHYANCSCEIELSVGNDRLWFVNPIFIEDCILPADPPPLPTGSYPPRPTPATPDATSPTSKGSPRRPPPPPPLPTVPPTGPARPLAPPVPPAGPLPNSPLTPTSHLAPHAPGPPGHSNQPPMTACESLPRPAVGLGPFGEEEMKPGTTPNPLHQAPPPPLPLKKALPAAPPRRRISERVSLESQNVGTSTDRDHSGISRTASLNLPPQSTVSSLGDRPPRTTEQSQDTEAKASHADSIPVPPGKAKQPPVPPPRKKRVSRQLASTLLSPLESPIQEASSEKQATGASWEGLSPVRQAGMQHLQVQSSSCPQSSPEFKGSQASLSDSLGVPASAADQDSYSTSSAEEELEFSSPNVKKKPSMILDKARHRLSFVSFASVFHAFLSSDRKLYKKVVELAQDKSSYFGSLVQDYKVYSLEMMARQTSSTEMLQEIRTMMTQLKSYLLQSTELKALVEPTLHSEEELEAIVESALYKCVLKPLKEAINSSLLEIHSRDGSLQQLKENQLVVLATTTTDLGVTTSVPEVAVMEKILQKLTSMHKAYSPGKKISILLKTCKLIYDSMALGNPGKPYGADDFLPVLMYVLARSNLTEMLLNVEYMMELMDPALQLGEGSYYLTTTYGALEHIKNYDKITVTRQLSVEVQDSIHRWERRRTLNKARASRSSVQDFICVSYLKPEQQSRTLASRADTAAQALCAQCAEKFEVSQPQDYRLFVLVDGRCFQLADEALPHRIKGYLLRSEPKRDFHFVYRPQDSGKDASSQPCIVVREPNFL

No constants are given. Whether binding was seen depends on the method and setting. In cells and extracts the contact can be indirect. These calls come from enrichment with a bait or labelling near it, and not all partners need be listed. For some assays here: A no says only that the protein was not detected with the bait. Tags and fused reporters may be left off the sequences shown.

The first assay deals with T1, BIN1iso1-TID (human BIN1 isoform 1-TurboID-V5 fusion protein), expressed in N2a cells (human). Nature of the assay: proximity labelling; BIN1iso1-TID (TurboID fusion) stably expressed in N2a cells; 50 μM biotin for 30 min at 37 °C; RIPA lysis, streptavidin magnetic beads, DIA LC-MS/MS; enrichment over Cyto-TID (Welch p<0.05, z-score >1), n = 3.
On to MYC (from UniProt P01108 1-454), for which the binding entry is “no binding”.
As to SYNJ1 (from UniProt Q8CHC4 1-1574), the binding entry is recorded as “binds”.
Take “endogenous mouse BIN1 (from UniProt O08539 1-588)”: the binding result is recorded as “binds”.
For B1, the binding entry is reported as “binds”.

In the next assay the target is T2, BIN1iso1-TID (human BIN1 isoform 1-TurboID-V5 fusion protein), expressed in mouse brain neurons (human). Nature of the assay: proximity labelling; BIN1iso1-TID expressed in mouse brain neurons (AAV-PHP.eB, human SYN1 promoter); biotin 0.5 mg/ml in drinking water for 5 days; hippocampus-cortex RIPA lysate, streptavidin magnetic beads, DIA LC-MS/MS; enrichment over Cyto-TID (Welch p<0.05, z-score >1), n = 11 against 9.
For the molecule BACE1 (from UniProt P56818 46-501), the binding entry was “no binding”.
For the molecule SH3G3 (from UniProt Q62421 1-347), the binding entry was “binds”.
Regarding ASAP2 (from UniProt Q7SIG6 1-958), the binding result was “binds”.
Consider SYNJ1 (from UniProt Q8CHC4 1-1574), for which the binding entry is listed as “binds”.

Another assay has the same target. Described as above. The source holds these as a separate data set.
B2: the binding result is reported as “binds”.
Consider B3, for which the binding result is “binds”.
Turning to B4, the binding result is “binds”.
